From the supplement of paper PMC10849652
This is one part of the list.

Protein sequences, listed by entry. Tags and fused reporters are not part of them. Lines headed by an entry give the natural chain unless they say otherwise; changes in a name come on top.
UniProt P11279: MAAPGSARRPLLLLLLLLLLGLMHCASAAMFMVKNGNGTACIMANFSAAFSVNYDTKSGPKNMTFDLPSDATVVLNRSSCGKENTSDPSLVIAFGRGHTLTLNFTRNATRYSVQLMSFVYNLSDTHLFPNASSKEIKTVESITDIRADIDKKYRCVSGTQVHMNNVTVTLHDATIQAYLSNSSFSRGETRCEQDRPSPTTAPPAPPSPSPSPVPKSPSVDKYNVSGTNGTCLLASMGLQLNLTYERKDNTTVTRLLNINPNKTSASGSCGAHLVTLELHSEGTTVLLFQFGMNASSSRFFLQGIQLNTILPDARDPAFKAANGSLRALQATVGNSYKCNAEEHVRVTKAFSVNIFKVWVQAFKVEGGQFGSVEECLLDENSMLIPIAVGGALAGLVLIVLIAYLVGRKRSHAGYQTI
UniProt P28838: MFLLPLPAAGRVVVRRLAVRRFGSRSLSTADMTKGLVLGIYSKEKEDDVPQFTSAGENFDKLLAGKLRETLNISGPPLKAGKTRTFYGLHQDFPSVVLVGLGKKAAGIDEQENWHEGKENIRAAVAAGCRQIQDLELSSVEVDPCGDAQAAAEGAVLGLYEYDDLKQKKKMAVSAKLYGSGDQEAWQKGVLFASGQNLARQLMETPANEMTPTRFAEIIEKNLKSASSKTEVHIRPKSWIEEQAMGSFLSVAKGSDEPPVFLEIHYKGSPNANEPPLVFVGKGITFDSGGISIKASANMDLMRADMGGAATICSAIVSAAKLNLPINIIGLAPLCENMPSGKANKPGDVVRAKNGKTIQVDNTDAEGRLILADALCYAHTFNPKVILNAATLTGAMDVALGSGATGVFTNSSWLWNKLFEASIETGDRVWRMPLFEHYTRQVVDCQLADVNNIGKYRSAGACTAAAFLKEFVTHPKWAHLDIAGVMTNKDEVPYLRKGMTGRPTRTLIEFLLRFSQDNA
UniProt P30533, whole entry, looked up: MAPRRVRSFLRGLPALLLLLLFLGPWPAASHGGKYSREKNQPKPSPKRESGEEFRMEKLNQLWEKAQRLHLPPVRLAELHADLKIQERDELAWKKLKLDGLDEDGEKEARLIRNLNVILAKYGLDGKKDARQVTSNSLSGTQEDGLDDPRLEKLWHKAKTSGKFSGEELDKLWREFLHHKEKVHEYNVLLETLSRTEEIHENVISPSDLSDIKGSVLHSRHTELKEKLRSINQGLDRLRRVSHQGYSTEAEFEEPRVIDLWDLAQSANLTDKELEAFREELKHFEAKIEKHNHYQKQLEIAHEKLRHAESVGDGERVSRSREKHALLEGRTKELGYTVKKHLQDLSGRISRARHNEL
UniProt P09382, whole entry, looked up: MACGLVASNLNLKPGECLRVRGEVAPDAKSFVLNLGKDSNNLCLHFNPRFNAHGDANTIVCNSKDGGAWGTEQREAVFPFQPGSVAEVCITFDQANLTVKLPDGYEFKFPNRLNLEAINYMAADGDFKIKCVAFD
UniProt P48357: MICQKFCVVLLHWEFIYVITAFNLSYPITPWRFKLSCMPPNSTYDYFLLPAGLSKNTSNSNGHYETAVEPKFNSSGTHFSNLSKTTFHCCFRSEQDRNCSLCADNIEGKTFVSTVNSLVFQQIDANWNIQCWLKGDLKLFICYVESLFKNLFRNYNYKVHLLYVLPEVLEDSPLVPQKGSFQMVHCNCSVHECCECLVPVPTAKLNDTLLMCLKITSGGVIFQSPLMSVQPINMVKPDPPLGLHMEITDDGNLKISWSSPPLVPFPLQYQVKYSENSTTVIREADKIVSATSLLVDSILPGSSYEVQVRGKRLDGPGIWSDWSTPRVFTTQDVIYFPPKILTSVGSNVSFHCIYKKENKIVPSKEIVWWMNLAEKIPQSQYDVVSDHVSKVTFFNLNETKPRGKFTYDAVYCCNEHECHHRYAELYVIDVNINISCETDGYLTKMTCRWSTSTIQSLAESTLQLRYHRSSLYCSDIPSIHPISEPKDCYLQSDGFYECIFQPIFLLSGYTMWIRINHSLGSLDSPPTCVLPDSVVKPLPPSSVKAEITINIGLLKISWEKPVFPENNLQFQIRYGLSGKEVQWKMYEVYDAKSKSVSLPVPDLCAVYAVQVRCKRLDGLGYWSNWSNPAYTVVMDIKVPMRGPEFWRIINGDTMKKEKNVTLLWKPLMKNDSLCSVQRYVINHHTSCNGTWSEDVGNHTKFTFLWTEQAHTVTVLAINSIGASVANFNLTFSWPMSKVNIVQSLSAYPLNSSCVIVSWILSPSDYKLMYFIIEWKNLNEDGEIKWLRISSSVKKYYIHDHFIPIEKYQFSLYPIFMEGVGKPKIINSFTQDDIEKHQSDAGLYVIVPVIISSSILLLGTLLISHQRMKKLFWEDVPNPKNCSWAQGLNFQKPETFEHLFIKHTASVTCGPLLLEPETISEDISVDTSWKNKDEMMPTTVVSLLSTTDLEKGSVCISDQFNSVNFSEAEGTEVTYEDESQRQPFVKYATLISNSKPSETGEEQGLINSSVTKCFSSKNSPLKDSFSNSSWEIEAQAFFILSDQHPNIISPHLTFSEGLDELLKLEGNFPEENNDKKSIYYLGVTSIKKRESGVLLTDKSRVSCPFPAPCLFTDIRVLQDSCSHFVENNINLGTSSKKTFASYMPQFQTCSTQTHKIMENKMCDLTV
UniProt Q86VI4: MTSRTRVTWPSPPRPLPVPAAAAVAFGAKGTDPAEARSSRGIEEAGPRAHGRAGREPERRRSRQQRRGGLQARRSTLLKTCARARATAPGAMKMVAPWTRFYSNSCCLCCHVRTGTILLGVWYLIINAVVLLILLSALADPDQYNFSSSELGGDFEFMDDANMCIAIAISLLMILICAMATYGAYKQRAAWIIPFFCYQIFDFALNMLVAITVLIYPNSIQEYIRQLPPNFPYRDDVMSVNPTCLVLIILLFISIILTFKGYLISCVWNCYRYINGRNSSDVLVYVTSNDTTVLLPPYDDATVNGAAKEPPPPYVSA
UniProt P49257: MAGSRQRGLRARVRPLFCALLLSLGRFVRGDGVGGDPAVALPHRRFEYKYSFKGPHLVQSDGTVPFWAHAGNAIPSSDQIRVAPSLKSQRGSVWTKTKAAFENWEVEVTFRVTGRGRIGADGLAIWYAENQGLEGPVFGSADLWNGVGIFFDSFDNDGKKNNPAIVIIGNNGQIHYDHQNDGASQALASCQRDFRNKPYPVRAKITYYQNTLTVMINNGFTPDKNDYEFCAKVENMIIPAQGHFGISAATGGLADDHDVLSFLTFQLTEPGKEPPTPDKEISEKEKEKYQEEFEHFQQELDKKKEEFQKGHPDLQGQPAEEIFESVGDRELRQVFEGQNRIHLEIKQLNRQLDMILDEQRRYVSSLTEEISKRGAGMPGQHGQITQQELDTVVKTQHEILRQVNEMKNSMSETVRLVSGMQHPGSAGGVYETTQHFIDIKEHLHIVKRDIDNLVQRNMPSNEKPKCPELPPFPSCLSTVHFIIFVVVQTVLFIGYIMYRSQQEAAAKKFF
UniProt O00214: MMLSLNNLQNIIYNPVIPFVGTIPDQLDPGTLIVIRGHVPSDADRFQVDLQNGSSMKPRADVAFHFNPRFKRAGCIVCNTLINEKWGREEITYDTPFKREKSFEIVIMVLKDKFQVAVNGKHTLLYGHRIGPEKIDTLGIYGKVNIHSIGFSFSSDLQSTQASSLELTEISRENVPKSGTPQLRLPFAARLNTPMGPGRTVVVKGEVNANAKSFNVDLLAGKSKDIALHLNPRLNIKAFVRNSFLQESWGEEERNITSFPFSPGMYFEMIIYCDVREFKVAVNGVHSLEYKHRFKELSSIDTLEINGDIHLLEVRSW
UniProt Q6UWP7: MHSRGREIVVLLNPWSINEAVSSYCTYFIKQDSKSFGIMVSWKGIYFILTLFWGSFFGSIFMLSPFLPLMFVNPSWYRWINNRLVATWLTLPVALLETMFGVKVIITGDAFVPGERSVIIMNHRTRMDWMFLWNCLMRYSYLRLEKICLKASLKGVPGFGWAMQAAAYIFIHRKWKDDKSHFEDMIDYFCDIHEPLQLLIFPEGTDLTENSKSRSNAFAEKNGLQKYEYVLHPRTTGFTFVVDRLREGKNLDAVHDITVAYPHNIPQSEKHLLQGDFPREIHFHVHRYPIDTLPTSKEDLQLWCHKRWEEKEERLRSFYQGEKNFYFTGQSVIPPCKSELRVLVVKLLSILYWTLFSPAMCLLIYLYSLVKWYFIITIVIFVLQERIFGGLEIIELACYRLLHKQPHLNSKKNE
UniProt Q4G0J3: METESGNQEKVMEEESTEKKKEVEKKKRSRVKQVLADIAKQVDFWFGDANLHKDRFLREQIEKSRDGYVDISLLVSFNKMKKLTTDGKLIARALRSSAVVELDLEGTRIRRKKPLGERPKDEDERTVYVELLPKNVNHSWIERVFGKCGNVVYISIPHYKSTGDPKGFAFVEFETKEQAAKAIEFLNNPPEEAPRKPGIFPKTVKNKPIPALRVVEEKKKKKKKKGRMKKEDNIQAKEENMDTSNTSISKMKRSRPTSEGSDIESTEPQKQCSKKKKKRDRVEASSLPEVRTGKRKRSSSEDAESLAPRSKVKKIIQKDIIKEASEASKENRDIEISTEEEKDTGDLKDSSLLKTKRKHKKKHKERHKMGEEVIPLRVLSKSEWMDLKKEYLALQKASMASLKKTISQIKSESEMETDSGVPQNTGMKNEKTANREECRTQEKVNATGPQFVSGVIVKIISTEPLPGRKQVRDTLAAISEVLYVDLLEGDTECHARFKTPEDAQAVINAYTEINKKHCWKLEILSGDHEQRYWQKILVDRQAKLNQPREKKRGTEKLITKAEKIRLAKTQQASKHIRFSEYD
UniProt P07195, whole entry, looked up: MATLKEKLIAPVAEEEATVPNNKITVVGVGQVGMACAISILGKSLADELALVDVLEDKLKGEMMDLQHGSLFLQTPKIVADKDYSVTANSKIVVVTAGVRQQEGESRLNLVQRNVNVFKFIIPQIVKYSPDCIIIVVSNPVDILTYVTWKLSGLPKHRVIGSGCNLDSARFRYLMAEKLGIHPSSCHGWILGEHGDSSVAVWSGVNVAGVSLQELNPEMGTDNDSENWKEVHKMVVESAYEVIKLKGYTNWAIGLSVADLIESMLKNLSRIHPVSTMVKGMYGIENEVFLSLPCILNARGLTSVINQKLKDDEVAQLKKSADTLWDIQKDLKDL
UniProt Q14739: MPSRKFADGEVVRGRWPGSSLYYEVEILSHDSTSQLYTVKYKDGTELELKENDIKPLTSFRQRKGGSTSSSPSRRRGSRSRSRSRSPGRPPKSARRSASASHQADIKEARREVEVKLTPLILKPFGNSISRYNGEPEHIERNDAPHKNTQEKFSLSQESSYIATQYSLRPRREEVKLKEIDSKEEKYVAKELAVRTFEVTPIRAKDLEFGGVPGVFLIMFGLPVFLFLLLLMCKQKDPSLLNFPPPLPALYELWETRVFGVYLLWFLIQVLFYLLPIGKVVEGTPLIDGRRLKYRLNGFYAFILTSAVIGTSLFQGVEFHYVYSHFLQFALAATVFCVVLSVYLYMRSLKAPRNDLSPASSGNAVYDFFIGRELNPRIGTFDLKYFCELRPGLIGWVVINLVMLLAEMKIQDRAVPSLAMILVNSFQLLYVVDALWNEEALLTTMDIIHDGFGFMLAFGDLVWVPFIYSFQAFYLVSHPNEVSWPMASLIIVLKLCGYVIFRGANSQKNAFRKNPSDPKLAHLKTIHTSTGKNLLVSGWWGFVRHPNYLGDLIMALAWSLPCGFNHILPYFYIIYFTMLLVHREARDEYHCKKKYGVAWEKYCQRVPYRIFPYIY
UniProt Q15031: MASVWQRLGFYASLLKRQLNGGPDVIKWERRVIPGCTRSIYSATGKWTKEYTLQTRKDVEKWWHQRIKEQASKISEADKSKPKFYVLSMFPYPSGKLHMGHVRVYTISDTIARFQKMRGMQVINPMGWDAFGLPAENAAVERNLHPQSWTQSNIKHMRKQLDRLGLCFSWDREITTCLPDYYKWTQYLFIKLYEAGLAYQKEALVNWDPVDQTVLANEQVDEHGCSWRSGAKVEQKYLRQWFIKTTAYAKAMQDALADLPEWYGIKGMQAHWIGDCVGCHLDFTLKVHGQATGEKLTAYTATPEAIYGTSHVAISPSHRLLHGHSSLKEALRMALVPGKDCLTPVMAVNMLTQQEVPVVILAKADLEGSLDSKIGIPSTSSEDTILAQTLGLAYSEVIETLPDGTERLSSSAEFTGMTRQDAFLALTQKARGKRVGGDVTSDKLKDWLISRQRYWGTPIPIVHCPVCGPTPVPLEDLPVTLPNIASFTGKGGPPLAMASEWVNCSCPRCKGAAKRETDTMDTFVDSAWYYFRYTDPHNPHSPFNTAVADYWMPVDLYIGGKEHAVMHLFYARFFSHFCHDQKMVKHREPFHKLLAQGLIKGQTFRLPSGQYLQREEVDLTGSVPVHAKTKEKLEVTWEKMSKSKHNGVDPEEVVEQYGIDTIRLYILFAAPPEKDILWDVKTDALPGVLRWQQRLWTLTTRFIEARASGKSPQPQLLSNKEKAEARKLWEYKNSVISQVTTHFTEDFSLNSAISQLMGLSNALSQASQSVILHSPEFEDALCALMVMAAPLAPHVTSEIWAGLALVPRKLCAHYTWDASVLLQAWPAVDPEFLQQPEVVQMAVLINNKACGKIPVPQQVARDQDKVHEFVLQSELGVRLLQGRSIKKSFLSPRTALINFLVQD

Assays:
Experiment in all cases: log2 fold change, soluble protein after heating vs DMSO (PISA); higher = thermal stabilisation; K562 cells, 10 uM, 30 min; active = over 0.2 and 3.5 SD of the protein, either way, in both replicates (recomputed)
[1] = compound: C1=CC=C(C=C1)[C@H](COC2=CC3=C(C=C2)NC(=O)N3)NC(=O)C4=CC=CN(C4=O)CC5=CC(=C(C=C5)F)F
Summary of the method: (§1)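 K562 cells at 2×10^6 cells/mL were treated with 10 μM compound for 30 min. Aliquots were heated for 3 min across 48°C-58°C, pooled, and extracted in PBS with 0.5% NP-40 at 4°C; soluble protein was the supernatant after 21,000xg for 90 min. Soluble protein was quantified by TMTpro 16plex LC-MS/MS with channel sums equalised, and reported as log2 fold change in thermal stability against DMSO controls, with values from duplicates.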

[2] = compound: CC1=C(SC2=C1C(=N[C@H](C3=NN=C(N32)C)CC(=O)N)C4=CC=C(C=C4)Cl)C
Summary of the method: as §1

[3] = compound: CC1=C2C(=CC=C1)N=C(N(C2=O)C3=CC=CC=C3C)CN4C=NC5=C(N=CN=C54)N
Summary of the method: as §1

[4] = compound: Cc1sc2c(c1C)C(c1ccc(Cl)cc1)=N[C@@H](CC(=O)OC(C)(C)C)c1nnc(C)n1-2
Summary of the method: as §1

[5] = compound: c1ccc([C@@H]2C[C@H]2NC2CCNCC2)cc1
Summary of the method: as §1

Measured: log2 fold change

KTI12 (UniProt Q96EK9)
inactive: [1] -0.111 | [2] -0.16 | [3] -0.043 | [4] -0.016 | [5] -0.065

LDHC (UniProt P07864)
inactive: [1] 0.08

LAMTOR1 (UniProt Q6IAA8)
inactive: [1] 0.101 | [2] 0.066 | [3] 0.014 | [4] -0.096 | [5] -0.042

LPP (UniProt Q93052)
inactive: [1] -0.12

LPCAT2 (UniProt Q7L5N7)
inactive: [1] -0.051 | [2] 0.057 | [3] 0.049 | [4] -0.141 | [5] -0.071

LMNA (UniProt P02545)
inactive: [1] 0.043 | [2] -0.016 | [3] -0.044 | [4] -0.017 | [5] 0.052

LMO2 isoform 3 (UniProt P25791)
inactive: [1] -0.045 | [2] -0.002 | [3] 0 | [4] 0.003 | [5] -0.004

LIMS1 (UniProt P48059)
inactive: [1] -0.03

L2HGDH (UniProt Q9H9P8)
inactive: [1] -0.031 | [2] 0.07 | [3] 0.078 | [4] 0.018 | [5] -0.029

LIMD1 (UniProt Q9UGP4)
inactive: [1] 0.006 | [2] 0.004 | [3] -0.014 | [4] -0.005 | [5] 0.028

LHPP (UniProt Q9H008)
inactive: [1] -0.075 | [2] -0.002 | [3] 0.024 | [4] -0.036 | [5] 0.019

LPCAT3 (UniProt Q6P1A2)
inactive: [1] 0.019 | [2] 0.071 | [3] -0.011 | [4] -0.093 | [5] -0.052

LAMP1 (UniProt P11279)
inactive: [1] -0.002 | [2] -0.023 | [3] -0.027 | [4] -0.061 | [5] 0.031

LAP3 (UniProt P28838)
inactive: [1] 0.018 | [2] 0.016 | [3] 0.019 | [4] -0.028 | [5] 0.011

Retrieved one by one from the entries so far, five records:
LAMP1 (UniProt P11279)
inactive: [1] -0.002 | [2] -0.023 | [3] -0.027 | [4] -0.061 | [5] 0.031

LIMS1 (UniProt P48059)
inactive: [1] -0.03

L2HGDH (UniProt Q9H9P8)
inactive: [1] -0.031 | [2] 0.07 | [3] 0.078 | [4] 0.018 | [5] -0.029

LHPP (UniProt Q9H008)
inactive: [1] -0.075 | [2] -0.002 | [3] 0.024 | [4] -0.036 | [5] 0.019

LMO2 isoform 3 (UniProt P25791)
inactive: [1] -0.045 | [2] -0.002 | [3] 0 | [4] 0.003 | [5] -0.004

(list continues)

LETM1 (UniProt O95202)
inactive: [1] -0.015 | [2] 0.017 | [3] 0.039 | [4] -0.066 | [5] -0.018

LGALS3 (UniProt P17931)
inactive: [1] -0.103

LIN7A (UniProt O14910)
inactive: [1] 0.027 | [2] 0.021 | [3] 0.117 | [4] 0.016 | [5] 0.055

KXD1 (UniProt Q9BQD3)
inactive: [1] -0.178 | [2] 0.079 | [3] 0.042 | [4] -0.079 | [5] 0.034

LMAN2 (UniProt Q12907)
inactive: [1] 0.007 | [2] 0.024 | [3] 0.014 | [4] -0.069 | [5] -0.004

LIN7C (UniProt Q9NUP9)
inactive: [1] 0.016 | [2] 0.019 | [3] -0.04 | [4] 0.005 | [5] 0.002

LRPAP1 (UniProt P30533)
inactive: [1] 0.01 | [2] -0.026 | [3] -0.016 | [4] 0.034 | [5] 0.014

LRP8 (UniProt E9PP15)
inactive: [1] 0.07 | [2] -0.155 | [3] 0.114 | [4] -0.142 | [5] 0.092

LRRC41 (UniProt Q15345)
inactive: [1] 0.038

LINS1 (UniProt Q8NG48)
inactive: [1] -0.089

LMLN isoform 3 (UniProt Q96KR4)
inactive: [1] -0.045

LIMK2 isoform 3 (UniProt P53671)
inactive: [1] -0.166 | [2] -0.083 | [3] 0.178 | [4] 0.104 | [5] 0.015

LIMA1 isoform 4 (UniProt Q9UHB6)
inactive: [1] 0.002 | [2] 0.014 | [3] -0.002 | [4] -0.028 | [5] 0.034

LOX (UniProt P28300)
inactive: [1] -0.113

LACTB (UniProt P83111)
inactive: [1] 0.029 | [2] -0.056 | [3] 0.065 | [4] 0.132 | [5] 0

LACTB2 (UniProt Q53H82)
inactive: [1] 0.013 | [2] -0.039 | [3] 0.011 | [4] -0.006 | [5] 0.023

LGALS1 (UniProt P09382)
inactive: [1] -0.009 | [2] 0.072 | [3] 0.031 | [4] -0.122 | [5] -0.026

LASP1 (UniProt Q14847)
inactive: [1] 0.018 | [2] -0.008 | [3] -0.033 | [4] -0.005 | [5] 0.01

LEPR (UniProt P48357)
inactive: [1] 0.008 | [2] 0.032 | [3] 0.019 | [4] 0.046 | [5] 0.067

LAPTM4B (UniProt Q86VI4)
inactive: [1] -0.12

LDLRAP1 (UniProt Q5SW96)
inactive: [1] 0.055

LNPK (UniProt Q9C0E8)
inactive: [1] 0.015 | [2] 0.015 | [3] 0.009 | [4] -0.01 | [5] 0.016

KYAT3 (UniProt Q6YP21)
inactive: [1] -0.01 | [2] 0.027 | [3] 0.012 | [4] 0.008 | [5] 0.025

LMAN1 (UniProt P49257)
inactive: [1] 0.002 | [2] -0.003 | [3] 0.019 | [4] 0 | [5] -0.003

LAMTOR4 (UniProt Q0VGL1)
inactive: [1] 0.056 | [2] -0.001 | [3] 0.01 | [4] -0.028 | [5] -0.064

LIG1 (UniProt P18858)
inactive: [1] -0.103 | [2] 0.094 | [3] 0.13 | [4] -0.064 | [5] -0.031

LGALS8 isoform 2 (UniProt O00214)
inactive: [1] -0.032 | [2] 0.011 | [3] -0.166 | [4] -0.022 | [5] -0.12

LMBRD1 (UniProt Q9NUN5)
inactive: [1] 0.013 | [2] 0.099 | [3] 0.143 | [4] -0.178 | [5] 0.039

LPIN3 isoform 2 (UniProt Q9BQK8)
inactive: [1] -0.047 | [2] 0.066 | [3] 0.075 | [4] -0.138 | [5] -0.044

LMBRD2 (UniProt Q68DH5)
inactive: [1] 0.029 | [2] 0.084 | [3] 0.06 | [4] -0.12 | [5] -0.035

LRBA (UniProt P50851)
inactive: [1] -0.016 | [2] 0.05 | [3] 0.088 | [4] 0 | [5] -0.023

LCLAT1 (UniProt Q6UWP7)
inactive: [1] 0.007 | [2] 0.008 | [3] 0.035 | [4] -0.049 | [5] 0.002

LARP7 isoform 3 (UniProt Q4G0J3)
inactive: [1] 0.018 | [2] -0.032 | [3] 0.045 | [4] -0.048 | [5] 0.027

LMBR1 isoform 3 (UniProt Q8WVP7)
inactive: [1] -0.194 | [2] 0.147 | [3] -0.134 | [4] -0.349 | [5] 0.078

LARS (UniProt Q9P2J5)
inactive: [1] -0.007 | [2] -0.11 | [3] -0.089 | [4] 0.168 | [5] -0.01

LARP1 (UniProt Q6PKG0)
inactive: [1] 0.002 | [2] -0.046 | [3] -0.046 | [4] 0.151 | [5] -0.002

LPIN1 isoform 7 (UniProt Q14693)
inactive: [1] -0.071 | [2] 0.086 | [3] 0.071 | [4] 0.02 | [5] 0.023

LONP1 (UniProt P36776)
inactive: [1] 0.003 | [2] -0.003 | [3] 0 | [4] -0.012 | [5] 0.011

LDHB (UniProt P07195)
inactive: [1] 0.044 | [2] 0.024 | [3] 0.028 | [4] -0.018 | [5] 0.006

LBR (UniProt Q14739)
inactive: [1] -0.105 | [2] 0.051 | [3] 0.011 | [4] -0.054 | [5] -0.005

LMNB2 (UniProt Q03252)
inactive: [1] 0.04 | [2] 0.052 | [3] 0.062 | [4] -0.04 | [5] 0.053

LEMD3 (UniProt Q9Y2U8)
inactive: [1] 0.067 | [2] 0.034 | [3] 0.119 | [4] -0.031 | [5] -0.01

LARS2 (UniProt Q15031)
inactive: [1] -0.014 | [2] 0.085 | [3] 0.063 | [4] -0.019 | [5] 0

LDLR (UniProt P01130)
inactive: [1] -0.037 | [2] 0.014 | [3] 0.037 | [4] 0.022 | [5] 0.062

LPIN2 (UniProt Q92539)
inactive: [1] 0.054 | [2] 0.037 | [3] 0.12 | [4] 0.018 | [5] -0.054
